No constants are given. Whether binding was seen depends on the method and setting. In cells and extracts the contact can be indirect. A result given as binding can be weak or reduced; the word gives no strength. For some assays here: Where a sequence is shown, tags or fusion partners need not be part of it.
T1: Cofilin-GFP (Drosophila) (UniProt P45594)
T1 sequence: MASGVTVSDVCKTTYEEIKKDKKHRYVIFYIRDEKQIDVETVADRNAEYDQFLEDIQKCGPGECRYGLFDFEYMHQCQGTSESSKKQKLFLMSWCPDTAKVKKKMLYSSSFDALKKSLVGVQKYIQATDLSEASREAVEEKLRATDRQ

B1: Cofilin (protein, UniProt P45594 1-148)
chain: T1 sequence

Assays:
[1] = target: T1, Cofilin-GFP (Drosophila); experiment: co-IP; da-GAL4 > UAS-Cofilin-GFP adult head extracts, anti-GFP antibody, Protein A/G Agarose, western blot
[2] = target: DNlg2-HA (Drosophila); experiment: co-IP; da-GAL4 > UAS-DNlg2-HA adult head extracts, anti-HA antibody, Protein A/G Agarose, western blot

Row | Molecule | binding [1] | binding [2]
1 | DNlg2 (Drosophila (endogenous in adult heads)) | binds | –
2 | B1 | – | binds
